Data from PubChem BioAssay AID1439 (NMMLSC, 2008).
The whole screen tested about 220,000 compounds, of which about 770 (0.35%) were called active. Inconclusive results, whose numbers are uncertain, are shown with a selection of clear calls. Cut-off read from the data, not from the text of the source: active = binding response below about 49% or above about 150%; inconclusive = no clear call, values can overlap the other calls; inactive = in between.

Sequences of proteins named here, by UniProt entry; tags and fusion partners are left off.
UniProt P09471, whole entry, looked up: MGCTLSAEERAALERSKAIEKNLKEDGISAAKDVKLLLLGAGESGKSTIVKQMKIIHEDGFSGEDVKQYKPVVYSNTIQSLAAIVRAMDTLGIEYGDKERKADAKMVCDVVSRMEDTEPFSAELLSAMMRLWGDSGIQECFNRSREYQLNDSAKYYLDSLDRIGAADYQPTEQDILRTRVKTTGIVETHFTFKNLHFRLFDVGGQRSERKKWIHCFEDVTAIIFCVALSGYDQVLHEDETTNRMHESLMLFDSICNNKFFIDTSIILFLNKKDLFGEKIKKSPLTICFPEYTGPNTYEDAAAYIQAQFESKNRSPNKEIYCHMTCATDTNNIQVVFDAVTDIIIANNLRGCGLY

target: Guanine nucleotide-binding protein G(o) subunit alpha (Homo sapiens) (UniProt P09471); assay: RGS7-Galphao binding modulators, primary screen, biochemical, multiplexed bead flow cytometry (AID 1439); conditions: at 10 µM, actives lie on both sides;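 note: fluorescent Galphao held in activated GDP-AlF4 state binding bead-coupled RGS7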

Compound | binding response (% of control)
Cc1ccc(C(=O)N/N=C/c2ccc(-c3cccc(C(F)(F)F)c3)o2)cn1 | inconclusive: 88.9%
COC(=O)c1cccc(C23CC4(C2)[C@H](CN(Cc2ccc(C(F)(F)F)cc2)[C@@H]4c2ccccc2)C3c2ccc(Cl)nc2)c1 (some centres undefined) | inconclusive: 93.8%
CCOc1ccc(N(CC(=O)Nc2cccc(C)c2C)S(=O)(=O)c2c(C)[nH]c(=O)[nH]c2=O)cc1 | inconclusive: 89.4%
C=C(C)CNC(=S)NN=C1c2ccccc2-c2ccccc21 | inconclusive: 126%
Cc1cc(NC(=O)CCC(=O)N(c2ccc(F)cc2)C(C(=O)NC2CCCC2)c2ccc(C)o2)no1 (centres undefined) | inactive: 99.1%
Cc1noc(C)c1CSc1nnc2sc3ccccc3n12 | inactive: 104%
CC(=O)N(Cc1ccccc1)c1ccccc1C(=O)O | inconclusive: 97.6%
CC(C)C(NC(=O)c1ccc(C(C)(C)C)cc1)C(=O)NCCc1ccccn1 (centres undefined) | inconclusive: 93.2%
Cc1onc(-c2ccccc2)c1C(=O)OCC(=O)NCc1ccc(F)cc1 | inconclusive: 109%
CCCCC1=CC2=CC(=O)C(C)(OC(=O)CC)C(=O)C2=CN1CCCOC(C)C (centres undefined) | inconclusive: 75.6%
Clc1ccc(CSc2nncn2-c2ccc3c(c2)OCCO3)cc1 | inconclusive: -65%
O=C(O)CCC(=O)N1N=C(c2ccccc2)CC1c1cccs1 (centres undefined) | inconclusive: 111%
Cc1nc(-c2cccc(Br)c2)ccc1C(=O)O | inconclusive: 105%
O=[N+]([O-])c1ccc(OCC2CC(c3ccccc3)=NO2)cc1 (centres undefined) | inconclusive: 64.8%
COc1ccc(S(=O)(=O)N2CCCc3ccccc32)cc1OC | inconclusive: 95.9%
COc1ccc(CCn2c(N)cc(=O)[nH]c2=O)cc1OC | inconclusive: 99.9%
CN(C)c1cccc2c1c(NC(=O)Nc1ccccc1)nn2C | inconclusive: 92.8%
Cc1ccc(-c2cn(-c3ccc(OC(F)F)cc3)c3[n+]2CCCCC3)cc1 | inconclusive: 93.8%
Cc1ccc(S(=O)(=O)N(C)C)cc1NC(=O)COC(=O)COc1ccccc1[N+](=O)[O-] | inconclusive: 97.3%
C[C@H]1C=C(C(=O)NC2CC2)O[C@@H](OCc2ccc(CO)cc2)C1 | inconclusive: 84.5%
CC1(C)[C@@H](O)CC[C@]2(C)C3C(O)C=C4[C@H]5C[C@@](C)(C(=O)O)CC[C@]5(C)CC[C@]4(C)[C@]3(C)CC[C@@H]12 (some centres undefined) | inconclusive: 118%
CCN(CC)S(=O)(=O)c1cc(NC(=O)CSc2nccn2C)ccc1C | inconclusive: 101%
COc1cccc(C2=CC(c3ccc(OC)c(OC)c3)NC(=S)N2)c1 (centres undefined) | inconclusive: 74.9%

Compound | binding response (% of control)
O=C(COc1ccc(-n2ccnc2)cc1)Nc1cccc(Cl)c1 | inconclusive: 83.9%
CN1C(=O)C2(NC(=O)c3ccccc3N2C)c2ccccc21 (centres undefined) | inconclusive: 79.8%
CC(CC(=O)Nc1nc2ccccc2[nH]1)n1ccnc1 (centres undefined) | inconclusive: 100%
O=C(CC1C=Cc2ccccc2N1C(=O)c1ccccc1)c1ccccc1 (centres undefined) | inconclusive: 133%
C/C(=N\N=C1\NC(=O)C(CC(=O)Nc2ccc(C)c(Cl)c2)S1)C(C)C (centres undefined) | inconclusive: 103%
COC(=O)/C(=N/Nc1ccccc1OC)N1CCCc2ccccc21 | inconclusive: 124%
COc1ccc(N2C(=O)C(CC(=O)Nc3ccc(Cl)cc3)N(NC(=O)c3cccc(F)c3)C2=S)cc1 (centres undefined) | inconclusive: 93.7%
COC(=O)[C@@H]1C[C@H]2CC[C@H](O)C[C@H]2N1Cc1ccc(C)s1 | inconclusive: 81%
Cn1c2ccccc2c(=O)c2c(=O)n(C3CCCCC3)c(-c3cccs3)nc21 | inactive: 100%
O=C(Nc1ccc(Cl)cc1)N1CCCC(Cn2cccc2)C1 (centres undefined) | inconclusive: 123%
Cc1ccc(NC(=S)N/N=C2\CCCCC2C)cc1 (centres undefined) | inconclusive: 98.7%
CC1(C)NC(=O)N(CC(=O)Nc2nc(-c3ccc(F)cc3)cs2)C1=O | active: 216% [activator]
CC(C)C[C@H](N)c1nnc(SCc2ccc(Cl)cc2)o1 | inconclusive: 20.5%
O=C(NCCc1ccncc1)Nc1ccc(Cl)c(Cl)c1 | inconclusive: 93.3%
CC(C)c1ccc(OCc2cccc(C(=O)N/N=C/c3cccnc3)c2)cc1 | inactive: 98.5%
COc1ccccc1/C=C\C(=O)NCC(=O)N/N=C/c1ccc(O)cc1O | inconclusive: 132%
CCC(=O)Nc1cccc(C2=NOC3(C2)C[C@@H](C(N)=O)N(C(=O)c2ccc(OC)cc2)C3)c1 (some centres undefined) | inconclusive: 122%
O=C1CN(C(=O)COc2ccc(Br)cc2)c2ccccc2N1 | inactive: 97.5%
O=C(OCCCN=C1NS(=O)(=O)c2ccccc21)c1ccc([N+](=O)[O-])cc1 | inactive: 97%
N#Cc1ccc(C23CC4(C2)[C@H](CN(CC2CCCCC2)[C@@H]4c2ccccc2)C3c2ccccc2)cc1 (some centres undefined) | inconclusive: 61.4%
COc1cccc(NC(=O)NCCc2ccc(Cl)cc2)c1 | inactive: 95.1%
CC(=O)Nc1ccc(N2CCCC(C)C2)c([N+](=O)[O-])c1 (centres undefined) | inconclusive: 130%
O=C(Nc1cc(S(=O)(=O)N2CCOCC2)ccc1-n1cncn1)c1ccc(Cl)cc1 | inconclusive: 59.2%

Reprinted at random: four entries already listed.
Compound | binding response (% of control)
Cc1ccc(NC(=S)N/N=C2\CCCCC2C)cc1 (centres undefined) | inconclusive: 98.7%
CC(C)c1ccc(OCc2cccc(C(=O)N/N=C/c3cccnc3)c2)cc1 | inactive: 98.5%
O=C(CC1C=Cc2ccccc2N1C(=O)c1ccccc1)c1ccccc1 (centres undefined) | inconclusive: 133%
O=C(Nc1cc(S(=O)(=O)N2CCOCC2)ccc1-n1cncn1)c1ccc(Cl)cc1 | inconclusive: 59.2%

Going on with the list:

Compound | binding response (% of control)
COc1cc(NC(=S)NCCO)c(OC)cc1Cl | inconclusive: 160%
O=C(NNC1=Nc2cccc3cccc1c23)c1ccc(Br)cc1 | inactive: 113%
Cc1onc(-c2ccccc2)c1C(=O)Nc1ccncc1 | inactive: 109%
Cc1ccc(C2C(C#N)=C(N)OC3=C2C(=O)CC(C)(C)C3)s1 (centres undefined) | inconclusive: 79.7%
COC(=O)CCC(=O)OC1(C)C(=O)C=C2C=C(C3CC3)N(CCc3c[nH]c4ccccc34)C=C2C1=O (centres undefined) | inconclusive: 91.2%
c1ccc(C2CC(c3cccs3)=NN2c2ccccc2)cc1 (centres undefined) | inconclusive: 97.4%
CN1CCN(c2ccccc2NC(=O)c2ccccc2F)CC1 | inconclusive: 79.1%
O=c1n(Cc2ccccc2Cl)nc2n1-c1ccccc1SC2 | inconclusive: 19.3%
CCCCNCC#CCOc1cc(C)ccc1C(C)C | inconclusive: 68.1%
S=c1[nH]c2ccccc2c2ccccc12 | inconclusive: 104%
COc1ccc(C(=O)OCC(=O)Nc2nc3c(F)c(F)c(F)cc3s2)cc1OC | inconclusive: 130%
CC(=O)Nc1sc(NC(=O)c2ccc([N+](=O)[O-])cc2)nc1-c1cccs1 | inconclusive: 138%
CCOC(=O)c1c(Cc2ccccc2)c[nH]c1C | inactive: 96%
O=S(=O)(c1ccccc1)N(CC(O)CN1CCCCC1)c1ccccc1 (centres undefined) | inactive: 110%
Cc1ccc(C(=O)Nc2cccc(C(F)(F)F)c2)cc1Nc1ncnc2nc[nH]c12 | inconclusive: 105%
Cc1ccc(NC(=O)COC(=O)C2(c3ccc(Cl)cc3)CCCC2)cc1 | inactive: 101%
COc1cc(-n2c(=O)c3ccccc3n(Cc3cccc(F)c3)c2=O)cc(OC)c1OC | inconclusive: 78.1%
CCOC(=O)C1=C(C)NC(=S)N(C(C)=O)C1c1ccc(OC)c(OC)c1 (centres undefined) | inconclusive: 28.9%
C/C(=N/NC(=O)Cc1cccn1C)c1ccccc1 | active: 45.7%
Cc1ccc(-n2ccnc2SCC(=O)O)cc1C | inconclusive: -68.8%
COc1ccc(NC(=O)/C(C#N)=C/c2ncc([N+](=O)[O-])n2C)c(OC)c1 | inconclusive: 134%
O=S(=O)(Nc1ccccc1)c1ccc(-c2csnn2)cc1 | inconclusive: 100%
CCOC(=O)C1CCCN(Cc2cn[nH]c2-c2ccc(F)cc2F)C1 (centres undefined) | inactive: 102%

Compound | binding response (% of control)
Cn1c(=O)c2c(nc(N3CCOCC3)n2C/C=C/c2ccccc2)n(C)c1=O | inconclusive: 52.1%
CCOC(=O)CC(=O)CSc1nc(CC)c(C)cc1C#N | inconclusive: 110%
CCOC(=O)C(CCCCP(=O)(c1ccccc1)c1ccccc1)(NC(C)=O)C(=O)OCC | inconclusive: 112%
CC(CNS(=O)(=O)c1ccc(Br)cc1)CN(C)C (centres undefined) | inconclusive: 112%
CC1(C)CC(=O)C(N=Nc2ccc(F)cc2)=C(O)C1 | inconclusive: 66.2%
Cc1ccc(/C=N/NC(=O)CNC(=O)c2cccc([N+](=O)[O-])c2C)o1 | inactive: 91%
O=C(c1ncc[nH]1)c1cccs1 | inconclusive: 87.5%
COC(=O)c1ccc(C(=O)NN)cc1 | inconclusive: 86.7%
CC1CN(CC(=O)Nc2ccc([N+](=O)[O-])cc2Br)CC(C)O1 (centres undefined) | inconclusive: 87%
COc1ccc(/C(N)=N/O)c(OC)c1 | inconclusive: 104%
O=C(O)c1cccc(N=NN2CCOCC2)c1 | inactive: 99%
COCCN1C(=O)/C(=C/c2ccc(N3CCCC3)cc2C)SC1=S | inactive: 122%
O=C(O)Cc1csc(-c2cccc(Oc3ccccc3)c2)n1 | inconclusive: 89.3%
CCO[C@H]1OC(C(=O)N2CCCCCCC2)=C[C@@H](c2coc3ccccc3c2=O)[C@@H]1CCCO | inactive: 104%
CCS(=O)(=O)N1CCN(c2cnn(-c3ccccc3)c(=O)c2Cl)CC1 | inconclusive: 102%
CCOc1ccc(NC(=O)N(CCN(C)C)C(C)c2cccnc2)cc1 (centres undefined) | inconclusive: 86.9%
Cc1ccc(C)c2[nH]c(=O)c(C(c3nnnn3Cc3ccccc3)N3CCc4ccccc4C3)cc12 (centres undefined) | inactive: 102%
O=C(Cn1cnc2ccccc2c1=O)N1CCc2ccccc2C1 | inactive: 93%
Cc1sc2c(c1C)c(=O)n(-c1ccccc1)c(=O)n2CC(=O)NCC1CCCO1 (centres undefined) | inconclusive: 105%
O=c1c(-c2ccco2)[n+]([O-])c2ccccc2n1OCc1ccccc1[N+](=O)[O-] | inconclusive: 129%
